This passage reports binding results from article PMC11663792.

Sequences of proteins named here, by UniProt entry; tags and fusion partners are left off.
UniProt O14980: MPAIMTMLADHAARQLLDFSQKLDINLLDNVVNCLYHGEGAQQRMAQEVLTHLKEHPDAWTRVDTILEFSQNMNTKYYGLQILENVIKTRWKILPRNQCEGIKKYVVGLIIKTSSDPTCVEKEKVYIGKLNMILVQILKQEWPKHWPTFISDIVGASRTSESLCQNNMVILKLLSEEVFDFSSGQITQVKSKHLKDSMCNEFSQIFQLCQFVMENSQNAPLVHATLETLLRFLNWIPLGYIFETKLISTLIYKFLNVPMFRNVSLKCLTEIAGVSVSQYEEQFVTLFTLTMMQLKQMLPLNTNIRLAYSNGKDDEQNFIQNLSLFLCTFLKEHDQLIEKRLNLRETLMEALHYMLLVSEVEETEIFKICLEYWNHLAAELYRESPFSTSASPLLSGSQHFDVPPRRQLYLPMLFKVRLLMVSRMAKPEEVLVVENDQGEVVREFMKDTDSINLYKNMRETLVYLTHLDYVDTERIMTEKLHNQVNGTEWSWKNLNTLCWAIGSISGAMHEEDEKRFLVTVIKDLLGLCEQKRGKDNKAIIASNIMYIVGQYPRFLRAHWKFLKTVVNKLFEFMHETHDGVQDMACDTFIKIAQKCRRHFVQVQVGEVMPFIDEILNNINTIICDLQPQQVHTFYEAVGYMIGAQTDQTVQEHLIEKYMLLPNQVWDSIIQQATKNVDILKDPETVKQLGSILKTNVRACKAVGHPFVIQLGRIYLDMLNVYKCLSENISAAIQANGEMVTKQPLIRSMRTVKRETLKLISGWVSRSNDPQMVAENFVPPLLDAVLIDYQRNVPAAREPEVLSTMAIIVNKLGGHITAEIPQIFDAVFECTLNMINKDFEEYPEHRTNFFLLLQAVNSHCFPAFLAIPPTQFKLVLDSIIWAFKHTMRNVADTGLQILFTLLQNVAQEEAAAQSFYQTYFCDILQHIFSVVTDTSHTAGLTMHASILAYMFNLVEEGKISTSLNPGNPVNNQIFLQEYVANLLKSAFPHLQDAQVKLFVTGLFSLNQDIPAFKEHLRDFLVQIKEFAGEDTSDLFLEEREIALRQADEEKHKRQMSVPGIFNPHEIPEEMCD
UniProt O15392: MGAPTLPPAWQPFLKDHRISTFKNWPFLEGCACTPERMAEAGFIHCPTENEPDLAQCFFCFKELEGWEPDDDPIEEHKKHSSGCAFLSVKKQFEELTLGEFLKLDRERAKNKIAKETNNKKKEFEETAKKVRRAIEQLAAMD

Assay [1] concerns the target exportin 1 (XPO1) (human (endogenous in NCI-H23 and H1703)) (UniProt O14980). Briefly: condition: only cells treated with selinexor (XPO1 inhibitor); co-IP; whole-cell extract of NCI-H23 cells treated with the XPO1 inhibitor selinexor.
Assay [2] has the same target. Briefly: co-IP; endogenous proteins in whole-cell lysates of cell lines (A549, NCI-H23, H1703, HBEC, WI-38); antibody or mock IgG, Protein G Agarose, washed with RIPA buffer, immunoblot; some cells treated with sotorasib, KRAS siRNA, NTF2 siRNA, serum, EGF, or overexpressing KRAS-G12C or KRAS-S17N.

These are yes or no findings as the source states them, for the method shown. In cells and extracts the contact can be indirect. Some results given as binding are weak or reduced against the parent protein; the word gives no strength.

Regarding survivin (from UniProt O15392 1-142), the values for the binding result in assay [1] and in assay [2] were “no binding” and “binds”, respectively.
